# Source: paper doi:10.1101/2025.04.16.649141
# These are yes or no findings as the source states them, for the method shown. Some results given as binding are weak or reduced against the parent protein; the word gives no strength. Tags and fused reporters may be left off the sequences shown.
# T1: membrane-anchored BMP4 (myc-BMP4-GPI) (Xenopus) (UniProt P30885)
# T1 sequence: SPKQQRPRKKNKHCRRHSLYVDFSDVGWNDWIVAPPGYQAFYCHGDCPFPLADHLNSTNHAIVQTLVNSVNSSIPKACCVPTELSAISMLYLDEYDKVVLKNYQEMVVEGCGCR
# B1: Cerberus fused with monomeric Venus (Cer-mV) (protein, UniProt P70041 21-270)
# chain: KHSEGRERTKTYSLNSRGYFRKERGARRSKILLVNTKGLDEPHIGHGDFGLVAELFDSTRTHTNRKEPDMNKVKLFSTVAHGNKSARRKAYNGSRRNIFSRRSFDKRNTEVTEKPGAKMFWNNFLVKMNGAPQNTSHGSKAQEIMKEACKTLPFTQNIVHENCDRMVIQNNLCFGKCISLHVPNQQDRRNTCSHCLPSKFTLNHLTLNCTGSKNVVKVVMMVEECTCEAHKSNFHQTAQFNMDTSTTLHH
# Biological target: T1, membrane-anchored BMP4 (myc-BMP4-GPI) (Xenopus)
binder,measurement,value
B1,binding,binds
